According to PubChem BioAssay AID2551 (National Center for Advancing Translational Sciences (NCATS), 2010):
Hit rate of the full screen: of about 310,000 compounds, about 17,000 (5.5%) were called active. This list was built around the results that the source calls inconclusive (neither active nor inactive); the mix of calls is not that of the screen. The call rests on the fitted dose curve; in most records, active means well fitted inhibition curve with a large enough effect; inconclusive means small, poorly fitted or top-dose-only effect, or effect the other way; inactive means no such curve, though single readings can be large or run the other way. Where the call is inconclusive, the potency comes from a doubtful curve fit.

Sequences of proteins named here, by UniProt entry; tags and fusion partners are left off. A change or cut given only in a name is not applied to a line headed by its entry.
UniProt P51450: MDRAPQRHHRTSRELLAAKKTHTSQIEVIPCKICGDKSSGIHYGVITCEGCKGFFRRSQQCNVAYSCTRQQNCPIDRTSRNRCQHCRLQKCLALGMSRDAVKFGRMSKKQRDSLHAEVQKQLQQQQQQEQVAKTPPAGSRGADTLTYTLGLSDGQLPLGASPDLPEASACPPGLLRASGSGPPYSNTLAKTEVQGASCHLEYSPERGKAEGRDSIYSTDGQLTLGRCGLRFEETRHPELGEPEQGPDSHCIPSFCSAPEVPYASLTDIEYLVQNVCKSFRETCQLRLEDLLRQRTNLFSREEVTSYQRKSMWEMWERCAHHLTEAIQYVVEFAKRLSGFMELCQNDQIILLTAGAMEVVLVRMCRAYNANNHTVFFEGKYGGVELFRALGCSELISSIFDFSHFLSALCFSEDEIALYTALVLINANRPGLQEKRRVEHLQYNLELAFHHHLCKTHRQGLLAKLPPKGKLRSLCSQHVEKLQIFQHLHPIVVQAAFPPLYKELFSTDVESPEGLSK

target: Nuclear receptor ROR-gamma (Mus musculus) (UniProt P51450); experiment: qHTS for inhibitors of ROR gamma transcriptional activity; conditions: Drosophila S2 Gal4-RORgamma UAS-luciferase reporter, 20 h; series mostly up to 53.6 µM; further: nearly all actives have a fitted effect of over 60% in size
Procedure, shortened: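 Drosophila Schneider cells stably carrying a metallothionein-driven Gal4 DBD–ROR gamma fusion and a UAS-Photinus luciferase reporter were exposed to compound for 1 hr, then induced with copper sulfate (700 uM final) for 20 hr at ambient temperature before luminescence reading.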
Potency means the concentration at half of the fitted maximal effect.

Potency, inactive:
O=C(NC(Cc1c[nH]c2ccccc12)C(=O)N1CCOCC1)c1cccs1 (stereo not drawn)
CC1=NN(c2ccccc2)C(=O)/C1=C/c1c(O)n(-c2ccc(F)cc2)[nH]c1=O
O=C(Nc1ccc(Br)cc1)C1CCCN1S(=O)(=O)c1cccs1 (stereo not drawn)
COc1ccccc1-n1c(SCC(=O)Nc2ccc(NC(C)=O)cc2)nc2c([nH]c3ccccc32)c1=O
CCCCCn1c(SCC#N)nc2cc(C(=O)NCC3CCCO3)ccc2c1=O (stereo not drawn)
O=C(/C=C/c1ccc([N+](=O)[O-])cc1)c1ccco1
O=c1c2ccccc2nc(-c2ccc(Br)cc2)n1Cc1ccccc1
CN(C)C(=O)c1ccc(NC(=O)c2ccccc2-c2ccccc2)cc1
CCOC(=O)N1CC=C2C(C#N)=C(N)C(C#N)(C#N)[C@H](c3ccc(OCC)c(OCC)c3)[C@H]2C1

Potency, active:
O=[N+]([O-])c1cc2oc3c(c2c(C=NCc2ccncc2)c1O)CCCC3 12.6 µM
Cc1ccc(C2Oc3ccccc3C3=C2C(c2cccs2)n2ncnc2N3)cc1 (stereo not drawn) 11.2 µM
COc1cccc(/C=C2\CCc3ccccc3C2=O)c1 11.2 µM
CCOC(=O)c1c(C)oc2c1c(C=NCc1ccccn1)c(O)c1ccccc12 6.31 µM
Cc1ccc(C(=O)NNC2=NCCC2)cc1 10 µM
COc1ccc(-c2csc3nc(C)nc(N4CCC(C)CC4)c23)cc1OC 7.08 µM
Cc1cc(COc2ccccc2)oc1C(=O)O 5.01 µM
CCN(CC)c1ccc(/C=N/NC(=O)c2cccc(S(=O)(=O)Nc3ccccc3OC)c2)c(O)c1 2.51 µM

Potency, inconclusive:
O=C(Nc1nc(-c2ccc3c(c2)OCO3)cs1)C1COc2ccccc2O1 (stereo not drawn) 8.91 µM [activator, partial curve]
O=C(COC(=O)c1ccc(-c2ccc([N+](=O)[O-])cc2)o1)NC(=O)NC12CC3CC(CC(C3)C1)C2 12.6 µM [activator, single point]
Cc1ccc(NC(=O)Nc2ccc3c(c2)N(C)C(=O)CS3)nc1 22.4 µM [inhibitor, single point]
Cn1cnnc1-c1cccc(NS(=O)(=O)c2ccc(N3CCCC3=O)cc2)c1 0.355 µM [inhibitor, full curve, poor fit]
CC(C)Cn1c(CN2CCN(c3ccccc3F)CC2)nc2c1c(=O)[nH]c(=O)n2C 14.1 µM [activator, partial curve, poor fit]
COc1ccc(-c2nc(CN3CCN(Cc4cccc(F)c4)CC3)c(C)o2)cc1 14.1 µM [inhibitor, single point]
CC1CCN(c2ccc(C(=O)Nc3ccc4c(c3)OCO4)cc2[N+](=O)[O-])CC1 11.2 µM [activator, single point]
COC(=O)c1ccc(/C=C/C(=O)c2cccc(OC)c2)cc1 25.1 µM [inhibitor, single point]
CCOc1cc(NC(=S)NCc2ccco2)c(OCC)cc1NC(=O)CC(C)C 35.5 µM [inhibitor, single point]
CC(=O)Nc1nc2ccccc2n1CCN1CCOCC1 10 µM [inhibitor, partial curve, poor fit]
CCOC(=O)N1CCN(C(=O)/C(=C/c2cccc3ccccc23)NC(=O)c2ccc(OC)cc2)CC1 11.2 µM [inhibitor, single point]
O=C(Nc1ccc(Br)c2ccccc12)c1ccc2ccccc2c1O 31.6 µM [inhibitor, single point]
C=C1CCN([C@@H](C)C(=O)OCc2cccc(C)c2)S(=O)(=O)c2ccccc21 22.4 µM [activator, single point]
COc1ccc(C(=O)C(C)OC(=O)c2cccc(S(=O)(=O)Nc3cc(Cl)c(OC)cc3OC)c2)cc1 (stereo not drawn) 14.1 µM [activator, partial curve]
CCCc1nc2scc(-c3ccc(C)cc3)c2c(=O)n1N 4.47 µM [activator, partial curve, poor fit]
C=CCn1c(SCC(=O)Nc2cccnc2Cl)nnc1-c1ccccc1F 14.1 µM [activator, partial curve]
CCn1c(SCC(=O)N2CCN(c3ccccc3)CC2)nc2c(c1=O)SC(C)C2 (stereo not drawn) 11.2 µM [activator, partial curve, poor fit]
N#CC(Cc1ccc(OC(F)F)cc1)c1nc2ccccc2[nH]1 (stereo not drawn) 22.4 µM [activator, single point]
COc1cc(/C=C(/C(=O)c2cccs2)c2nc3ccccc3[nH]2)cc(OC)c1O 5.62 µM [inhibitor, partial curve, poor fit]
CCOC(=O)N1CCN(Cc2nc3cc(NC(=O)c4ccco4)ccc3n2CC)CC1 11.2 µM [activator, single point]
O=C(Nc1ccc(Br)cc1Cl)Nn1cnnc1 0.0316 µM [activator, full curve, poor fit]
COc1ccc(Cc2nnc(NC(=O)c3ccccc3F)s2)cc1OC 10 µM [activator, partial curve]
CCN1C(=O)/C(=C/c2cnn(CC)c2C)SC1=S 11.2 µM [activator, partial curve]
C/C(=N\NC(=O)c1cc(O)ccc1O)c1cccc(NC(=O)c2ccc(Cl)cc2)c1 7.08 µM [activator, full curve]
COc1ccccc1N1CCN(C(=O)CCc2ccc(S(=O)(=O)NCC(C)C)cc2)CC1 0.794 µM [activator, partial curve]
CCOc1ncccc1C(=O)OCC(=O)Nc1ccc(S(=O)(=O)N2CCOCC2)cc1 20 µM [activator, partial curve, poor fit]

Three compounds out of the list, sorted by formula weight, smallest number first:
Potency, inconclusive:
COc1ccc(Cc2nnc(NC(=O)c3ccccc3F)s2)cc1OC 10 µM [activator, partial curve]
CC1CCN(c2ccc(C(=O)Nc3ccc4c(c3)OCO4)cc2[N+](=O)[O-])CC1 11.2 µM [activator, single point]
O=C(Nc1ccc(Br)c2ccccc12)c1ccc2ccccc2c1O 31.6 µM [inhibitor, single point]
